# Test results from PubChem BioAssay AID504834 (National Center for Advancing Translational Sciences (NCATS), 2011).
# Among all 320,000 compounds or so, about 22,000 (6.9%) were called active. This list was built around the results that the source calls inconclusive (neither active nor inactive); the mix of calls is not that of the screen. Calls come from the whole dose curve; as a rule, active = well fitted inhibition curve with a large enough effect; inconclusive = small, poorly fitted or top-dose-only effect, or another doubt; inactive = no such curve, though single readings can be large or run the other way. A potency beside an inconclusive call is a rough fit, not a confirmed value.
# Assay: Primary qHTS for delayed death inhibitors of the malarial parasite plastid, 96 hour incubation
# Conditions: P. falciparum luciferase reporter growth; series mostly up to 28.7 µM
# In short: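 P. falciparum expressing integrated firefly luciferase grown in erythrocytes (2% hematocrit, 0.05% parasitemia final) with compounds for 96 hours at 37 C, 5% CO2. Growth inhibition read as loss of luminescence after adding luciferase detection reagent.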
# Potency is the fitted concentration of half-maximal effect.
row,Compound,Potency
1,O=C(/C=C/c1ccc(Cl)cc1Cl)NCc1ccco1,"inconclusive: 0.329 µM [inhibitor, full curve, poor fit]"
2,Cc1cc2c(s1)c1cnn(-c3ccccc3)c(=O)c1n2C,"inconclusive: 8.28 µM [activator, partial curve]"
3,O=C(Nc1nc(-c2ccccc2)cs1)c1ccc2c(=O)n3c(nc2c1)CCCCC3,"inconclusive: 18.5 µM [inhibitor, single point]"
4,O=C(Nc1nnc(SCCC2OCCO2)s1)C1CC(=O)N(c2ccccc2)C1 (stereo unspecified),"inconclusive: 10.4 µM [inhibitor, single point]"
5,CS(=O)(=O)N(Cc1ccco1)CC(O)Cn1cc(C=O)c2ccccc21 (stereo unspecified),"inconclusive: 13.1 µM [inhibitor, single point]"
6,Fc1ccc(-c2cn(-c3ccccc3)c3[n+]2CCS3)cc1,active: 0.415 µM
7,CCNC(=O)CC1SC(=Nc2ccc(C)cc2)N(CC)C1=O (stereo unspecified),"inconclusive: 0.928 µM [inhibitor, full curve]"
8,CCOC(=O)c1cnc(SCC(=O)c2ccc3c(c2)OCCO3)nc1N,inactive
9,CCC(CC)COC(=O)C1=C(C)NC(=O)NC1c1cccc([N+](=O)[O-])c1 (stereo unspecified),"inconclusive: 18.5 µM [inhibitor, single point]"
10,CCOC(=O)CC(=O)CSc1nc(-c2ccccc2)cc(-c2ccccc2)c1C#N,"inconclusive: 10.4 µM [inhibitor, single point]"
11,O=C(NCCN1CCN(c2ccccc2)CC1)Nc1cccc(Br)c1,"inconclusive: 11.7 µM [inhibitor, single point]"
12,CCc1cc(C(=O)c2ccccc2)c(N)s1,"inconclusive: 2.62 µM [inhibitor, partial curve, poor fit]"
13,CCCCCC(=O)N1CCN(S(=O)(=O)c2ccc3c(c2)OCCCO3)CC1,"inconclusive: 10.4 µM [inhibitor, partial curve]"
14,COc1ccc(C(C#N)N2CCOCC2)cc1 (stereo unspecified),"inconclusive: 9.28 µM [inhibitor, partial curve, poor fit]"
15,Cc1ccc(N2CCN(S(=O)(=O)c3ccc4oc(=O)ccc4c3)CC2)c(C)c1,inactive
16,Fc1cccc(/C=C2\CCCC3=C2NC(=S)NC3c2cccc(F)c2)c1 (stereo unspecified),active: 4.15 µM
17,Cc1ccc(-n2ncc3c(SCc4ccccn4)ncnc32)c(C)c1,"inconclusive: 18.5 µM [inhibitor, single point]"
18,Cc1ccc(CSc2nc3ccccc3c(=O)n2CCCC(=O)NCc2ccco2)cc1,"inconclusive: 11.7 µM [inhibitor, partial curve, poor fit]"
19,CC(Oc1ccc2c(-c3ccccc3)cc(=O)oc2c1)C(=O)NCC1CCC(C(=O)O)CC1 (stereo unspecified),active: 3.29 µM
20,COc1ccc(S(=O)(=O)NCc2ccc(C(=O)N3CCC4(CC3)OCCO4)cc2)cc1,"inconclusive: 0.294 µM [inhibitor, partial curve, poor fit]"
21,C[n+]1cn(/N=C/c2ccccc2)c2ccccc21,active: 13.1 µM
22,O=C(OCc1ccccc1)N1CCOCCN(C(=O)OCc2ccccc2)CCOCC1,inactive

# Nothing new here: 14 of the compounds above.
row,Compound,Potency
5,CS(=O)(=O)N(Cc1ccco1)CC(O)Cn1cc(C=O)c2ccccc21 (stereo unspecified),"inconclusive: 13.1 µM [inhibitor, single point]"
6,Fc1ccc(-c2cn(-c3ccccc3)c3[n+]2CCS3)cc1,active: 0.415 µM
7,CCNC(=O)CC1SC(=Nc2ccc(C)cc2)N(CC)C1=O (stereo unspecified),"inconclusive: 0.928 µM [inhibitor, full curve]"
8,CCOC(=O)c1cnc(SCC(=O)c2ccc3c(c2)OCCO3)nc1N,inactive
9,CCC(CC)COC(=O)C1=C(C)NC(=O)NC1c1cccc([N+](=O)[O-])c1 (stereo unspecified),"inconclusive: 18.5 µM [inhibitor, single point]"
10,CCOC(=O)CC(=O)CSc1nc(-c2ccccc2)cc(-c2ccccc2)c1C#N,"inconclusive: 10.4 µM [inhibitor, single point]"
11,O=C(NCCN1CCN(c2ccccc2)CC1)Nc1cccc(Br)c1,"inconclusive: 11.7 µM [inhibitor, single point]"
12,CCc1cc(C(=O)c2ccccc2)c(N)s1,"inconclusive: 2.62 µM [inhibitor, partial curve, poor fit]"
13,CCCCCC(=O)N1CCN(S(=O)(=O)c2ccc3c(c2)OCCCO3)CC1,"inconclusive: 10.4 µM [inhibitor, partial curve]"
14,COc1ccc(C(C#N)N2CCOCC2)cc1 (stereo unspecified),"inconclusive: 9.28 µM [inhibitor, partial curve, poor fit]"
15,Cc1ccc(N2CCN(S(=O)(=O)c3ccc4oc(=O)ccc4c3)CC2)c(C)c1,inactive
16,Fc1cccc(/C=C2\CCCC3=C2NC(=S)NC3c2cccc(F)c2)c1 (stereo unspecified),active: 4.15 µM
17,Cc1ccc(-n2ncc3c(SCc4ccccn4)ncnc32)c(C)c1,"inconclusive: 18.5 µM [inhibitor, single point]"
18,Cc1ccc(CSc2nc3ccccc3c(=O)n2CCCC(=O)NCc2ccco2)cc1,"inconclusive: 11.7 µM [inhibitor, partial curve, poor fit]"

# Later entries.

row,Compound,Potency
1,Cc1nnc(SCC(=O)Nc2c(Cl)cccc2Cl)[nH]c1=O,"inconclusive: 9.28 µM [inhibitor, partial curve, poor fit]"
2,Cc1cc(C)n(Cc2cccc(F)c2)c(=O)c1C#N,"inconclusive: 0.104 µM [inhibitor, full curve, poor fit]"
3,Cc1ccc(NS(=O)(=O)c2ccc(-c3cnc(C4CC4)o3)cc2)c(C)c1,"inconclusive: 18.5 µM [inhibitor, single point]"
4,COc1ccc(N2CCN(CCNC(=O)Nc3ccc(C)cc3Cl)CC2)cc1,active: 2.33 µM
5,Cc1cc(C)nc(SCC(=O)N/N=C/c2cc(C)n(-c3ccccc3C)c2C)n1,"inconclusive: 18.5 µM [inhibitor, single point]"
6,O=C(COc1cccc(NC(=O)c2cccs2)c1)c1ccc(F)cc1,"inconclusive: 18.5 µM [inhibitor, single point]"
7,COc1ccc(-c2cc(C(F)(F)F)c3c(N)c(C(=O)NCCSC)sc3n2)cc1,"inconclusive: 4.15 µM [inhibitor, single point]"
8,CSC1=NC2(CC(c3ccccc3)Oc3cc(O)ccc32)CC(C)(C)N1 (stereo unspecified),"inconclusive: 14.7 µM [inhibitor, single point]"
9,COc1ccc(-n2c(Cc3cccn3C)nnc2SCC(=O)Nc2ccccc2F)cc1,"inconclusive: 5.86 µM [inhibitor, partial curve]"
10,Cc1cccc2c1cnn2C(=O)CCC(=O)NCc1ccc(F)cc1,active: 14.7 µM
11,Cc1ccc(SCCN2CCN(C)CC2)cc1,"inconclusive: 18.5 µM [inhibitor, single point]"
12,Cc1ccccc1CN(c1ccc(C(=O)NCc2cccnc2)cc1)S(C)(=O)=O,"inconclusive: 14.7 µM [inhibitor, single point]"
13,COc1ccc(S(=O)(=O)Nc2ccccc2OC)cc1NC(=O)CC1CC2CCC1C2 (stereo unspecified),"inconclusive: 18.5 µM [inhibitor, single point]"
14,O=C(O)CCc1ccc(-c2ccc(Cl)cc2)n1CC(=O)O,inactive
15,C/C(Cn1nnc([N+](=O)[O-])n1)=N\NC(=O)c1ccc(O)cc1O,"inconclusive: 20.8 µM [inhibitor, partial curve, poor fit]"
16,CCC(=O)Nc1cccc(NC(=O)CSc2nnnn2C)c1,"inconclusive: 14.7 µM [inhibitor, single point]"
17,Cc1nc2ncnn2c(C)c1CCC(=O)Nc1ccc(S(=O)(=O)N2CCCCCC2)cc1,"inconclusive: 4.15 µM [inhibitor, partial curve]"
18,N/C(=N\S(=O)(=O)c1cccs1)c1ccccc1Cl,"inconclusive: 18.5 µM [inhibitor, single point]"
19,Cc1noc(C)c1CSc1nnc(-c2c[nH]c3ccccc23)n1-c1ccc(Cl)cc1,"inconclusive: 2.94 µM [inhibitor, full curve, poor fit]"
20,Cc1nn(C)c(C)c1CN(C)C(=O)C1c2ccccc2Oc2ccccc21,"inconclusive: 16.5 µM [inhibitor, single point]"
21,O=C(Nc1ccccc1N1CCOCC1)C1=NN(c2ccccc2)C(=O)CC1,"inconclusive: 14.7 µM [inhibitor, single point]"
22,Cc1ccc(NC(=S)NNC(=O)Nc2ccccc2)cc1,inactive

row,Compound,Potency
1,COc1ccc(C(=O)NCCN2CCOCC2)c(OC)c1OC,inactive
2,O=C1c2ccccc2C(Nc2ccc3c(c2)OCCO3)N1Cc1ccc2c(c1)OCO2 (stereo unspecified),inactive
3,O=C(Nc1ccc([N+](=O)[O-])cc1)/C(=C/c1cccc([N+](=O)[O-])c1)NC(=O)C1CCCCC1,"inconclusive: 1.17 µM [inhibitor, partial curve, poor fit]"
4,CCC(CC)=NNc1cccc([N+](=O)[O-])c1,"inconclusive: 10.4 µM [inhibitor, single point]"
5,COc1ccc(Cl)cc1NC(=O)c1cc(C)no1,inactive
6,Cc1cc(C(=O)OCC(=O)N2CC(C)OC(C)C2)ccc1[N+](=O)[O-] (stereo unspecified),inactive
7,COc1ccc(NC2=NC3(CCCCC3)N=C(N)N2)cc1,"inconclusive: 6.57 µM [inhibitor, partial curve, poor fit]"
8,COc1ccc(N(C)C(=O)CN(C)S(=O)(=O)c2ccc3c(c2)c(=O)n(C)c(=O)n3C)c(OC)c1,"inconclusive: 4.15 µM [inhibitor, single point]"
9,CC1CN(c2nc3c(c(=O)n(C)c(=O)n3C)n2Cc2c(F)cccc2Cl)CC(C)O1 (stereo unspecified),"inconclusive: 0.037 µM [inhibitor, full curve, poor fit]"
10,O=C(O)CC(NC(=O)C12CC3CC(CC(C3)C1)C2)c1ccc(F)cc1 (stereo unspecified),"inconclusive: 2.94 µM [inhibitor, partial curve, poor fit]"
11,CC(=O)N1c2ccc(S(=O)(=O)N3CCC(C(=O)Nc4cc(C)cc(C)c4)CC3)cc2CC1C (stereo unspecified),"inconclusive: 16.5 µM [inhibitor, single point]"
12,CCOC(=O)Nc1ccc2c(CN3C(=O)NC(CC)(CC)C3=O)cc(=O)oc2c1,"inconclusive: 9.28 µM [inhibitor, single point]"
13,COc1ccc(C(=O)OCC(=O)Nc2ccc3[nH]c(=O)[nH]c3c2)c(OC)c1OC,inactive
14,COc1ccc(F)cc1C(=O)C1CCCN(Cc2cccn2-c2cccnc2)C1 (stereo unspecified),"inconclusive: 10.4 µM [inhibitor, partial curve]"
15,CCn1c(=O)cc(OCC(=O)Nc2cccc(C)n2)c2ccccc21,"inconclusive: 6.57 µM [inhibitor, partial curve]"
16,CC(=O)OCC1=C(C(=O)O)N2C(=O)[C@@H](NC(=O)CSc3ccncc3)[C@H]2SC1,inactive
17,O=C(NCC1(c2ccccc2)CCOCC1)c1ccc(Br)o1,"inconclusive: 9.28 µM [inhibitor, single point]"
18,O=C(CSc1nncs1)Nc1ccc(S(=O)(=O)N2CCCC2)cc1,inactive
19,COc1ccc(/C=C/C(=O)N(Cc2cccs2)C2CCS(=O)(=O)C2)cc1 (stereo unspecified),"inconclusive: 8.28 µM [inhibitor, partial curve, poor fit]"
20,Cc1ccccc1Nc1nc2ccccc2n1C(C)C,"inconclusive: 9.28 µM [inhibitor, single point]"
21,CC1C(=O)Nc2ccc(S(=O)(=O)N3CCN(c4cccc(C(F)(F)F)c4)CC3)cc2NC1=O (stereo unspecified),"inconclusive: 18.5 µM [inhibitor, single point]"
22,O=C(N/C(=C\c1ccco1)C(=O)N1CCOCC1)c1ccc([N+](=O)[O-])cc1,active: 4.65 µM
